Data: US20070213324A1 (priority 2006, published 2007)
Some results were stated once for a whole list of compounds, not compound by compound.

Tested on: pain produced by a sprained ankle
Experiment: Phase II evaluation of pain by visual analogue scale (VAS)
Assay type: in vivo, human
Conditions: grade I or II sprained ankle

For `Cc1cnc(NC(=O)C2=C(O)c3ccccc3S(=O)(=O)N2C)s1` [Meloxicam, 4-hydroxy-2-methyl-N-(5-methyl-2-thiazolyl)-2H-1,2-benzothiazine-3-carboxamide-1,1-dioxide], the “rating on the VAS scale after treatment” value was “below 1”.
